{"source": "patent US20190324032A1", "about": "(University of California, published 2019)", "binders": {"B1": {"name": "GST-BMAL1 PAS-AB (other)", "chain": "TNPYTEANYKPTFLSDDELKHLILRAADGFLFVVGCDRGKILFVSESVFKILNYSQNDLIGQSLFDYLHPKDIAKVKEQLSSSDTAPRERLIDAKTGLPVKTDITPGPSRLCSGARRSFFCRMKCNRPSVKVEDKDFASTCSKKKDRKSFCTIHSTGYLKSWPPTKMGLDEDNEPDNEGCNLSCLVAIGRLHSHMVPQPANGEIRVKSMEYVSRHAIDGKFVFVDQRATAILAYLPQELLGTSCYEYFHQDDIGHLAECHRQVLQTREKITTNCYKFKIKDGSFITLRSRWFSFMNPWTKEVEYIV", "notes": "not shown: Glutathione S-Transferase (GST) tag; linker with TEV protease site between GST and BMAL1 PAS-AB"}}, "molecular_target": "T1, His6-tagged mouse CRY1 PHR (photolyase homology region, amino acids 1-491) (mouse, UniProt P97784 1-491)", "T1 construct": "Expressed in Sf9 cells; also called wild-type CRY1 PHR; not shown: N-terminal His6 tag / vector residues", "T1 sequence": "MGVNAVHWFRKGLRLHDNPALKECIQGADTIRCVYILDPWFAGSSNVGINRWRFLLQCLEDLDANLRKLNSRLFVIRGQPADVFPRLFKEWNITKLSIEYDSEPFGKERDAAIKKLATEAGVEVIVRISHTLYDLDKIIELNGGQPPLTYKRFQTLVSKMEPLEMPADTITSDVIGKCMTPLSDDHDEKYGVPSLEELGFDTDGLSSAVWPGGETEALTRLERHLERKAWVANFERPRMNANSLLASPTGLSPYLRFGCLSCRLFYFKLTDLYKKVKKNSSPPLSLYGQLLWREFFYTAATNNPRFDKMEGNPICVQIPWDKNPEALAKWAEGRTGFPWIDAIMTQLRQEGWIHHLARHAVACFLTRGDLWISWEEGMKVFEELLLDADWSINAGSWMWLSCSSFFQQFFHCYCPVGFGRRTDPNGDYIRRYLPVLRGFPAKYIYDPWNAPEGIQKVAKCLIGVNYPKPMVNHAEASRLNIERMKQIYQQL", "assay": "GST pull-down, GST-BMAL1 PAS-AB alone", "method": "Soluble proteins were purified using GS4B resin (GE Healthcare). GST-tagged proteins were eluted with 10 mM glutathione and peak elution was desalted into 20 mM HEPES pH 7.5, 125 mM NaCl, 5% glycerol and 2 mM TCEP. […] After rotation at 4° C. overnight, reactions were washed 3 times with the above buffer and eluted with 6× SDS. Samples were boiled for ˜5 min. and loaded on an SDS-PAGE gel for visualization by Coomassie stain.", "data": [{"binder": "B1", "values": [{"measurement": "binding result", "result": "no binding"}]}]}
